Five sequences from patent publication US7999089 can be followed below.

Chains of the proteins cited; added tags and fusions are not shown. Residues count along the entry.
UniProt P35222, 129-695: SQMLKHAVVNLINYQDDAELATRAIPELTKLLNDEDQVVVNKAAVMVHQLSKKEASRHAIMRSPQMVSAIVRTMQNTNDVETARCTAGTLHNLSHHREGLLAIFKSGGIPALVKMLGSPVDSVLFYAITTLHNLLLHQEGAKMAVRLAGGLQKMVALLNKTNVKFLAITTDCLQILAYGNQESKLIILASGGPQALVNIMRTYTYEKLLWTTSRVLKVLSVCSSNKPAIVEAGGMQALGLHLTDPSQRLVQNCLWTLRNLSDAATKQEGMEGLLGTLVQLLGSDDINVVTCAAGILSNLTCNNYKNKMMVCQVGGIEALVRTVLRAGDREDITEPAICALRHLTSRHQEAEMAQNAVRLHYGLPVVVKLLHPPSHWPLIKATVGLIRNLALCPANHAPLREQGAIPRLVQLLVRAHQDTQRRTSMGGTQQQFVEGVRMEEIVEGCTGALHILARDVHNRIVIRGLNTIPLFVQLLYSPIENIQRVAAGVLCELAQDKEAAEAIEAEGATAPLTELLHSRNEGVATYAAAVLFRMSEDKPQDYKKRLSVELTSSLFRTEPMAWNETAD
UniProt P35222, 2-781: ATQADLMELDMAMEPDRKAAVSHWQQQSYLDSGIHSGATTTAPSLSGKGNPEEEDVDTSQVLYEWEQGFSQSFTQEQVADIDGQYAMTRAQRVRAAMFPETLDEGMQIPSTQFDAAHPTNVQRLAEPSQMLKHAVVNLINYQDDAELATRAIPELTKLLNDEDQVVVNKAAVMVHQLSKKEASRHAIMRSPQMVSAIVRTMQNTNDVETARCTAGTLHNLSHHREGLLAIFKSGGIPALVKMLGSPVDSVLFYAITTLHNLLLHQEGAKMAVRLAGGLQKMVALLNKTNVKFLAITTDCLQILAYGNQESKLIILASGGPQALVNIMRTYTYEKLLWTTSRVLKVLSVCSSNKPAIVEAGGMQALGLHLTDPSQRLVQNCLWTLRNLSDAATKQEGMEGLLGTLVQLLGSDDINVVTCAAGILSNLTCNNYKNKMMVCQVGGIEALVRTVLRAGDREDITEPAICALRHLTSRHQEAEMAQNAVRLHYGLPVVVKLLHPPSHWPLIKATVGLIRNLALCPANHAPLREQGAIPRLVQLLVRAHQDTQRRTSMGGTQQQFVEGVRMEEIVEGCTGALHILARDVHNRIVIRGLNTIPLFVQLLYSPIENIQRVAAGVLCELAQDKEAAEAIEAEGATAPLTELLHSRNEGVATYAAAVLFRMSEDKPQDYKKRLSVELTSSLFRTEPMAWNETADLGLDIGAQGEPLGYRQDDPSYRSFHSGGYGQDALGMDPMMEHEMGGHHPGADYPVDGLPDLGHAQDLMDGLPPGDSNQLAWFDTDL
UniProt P35222, whole entry: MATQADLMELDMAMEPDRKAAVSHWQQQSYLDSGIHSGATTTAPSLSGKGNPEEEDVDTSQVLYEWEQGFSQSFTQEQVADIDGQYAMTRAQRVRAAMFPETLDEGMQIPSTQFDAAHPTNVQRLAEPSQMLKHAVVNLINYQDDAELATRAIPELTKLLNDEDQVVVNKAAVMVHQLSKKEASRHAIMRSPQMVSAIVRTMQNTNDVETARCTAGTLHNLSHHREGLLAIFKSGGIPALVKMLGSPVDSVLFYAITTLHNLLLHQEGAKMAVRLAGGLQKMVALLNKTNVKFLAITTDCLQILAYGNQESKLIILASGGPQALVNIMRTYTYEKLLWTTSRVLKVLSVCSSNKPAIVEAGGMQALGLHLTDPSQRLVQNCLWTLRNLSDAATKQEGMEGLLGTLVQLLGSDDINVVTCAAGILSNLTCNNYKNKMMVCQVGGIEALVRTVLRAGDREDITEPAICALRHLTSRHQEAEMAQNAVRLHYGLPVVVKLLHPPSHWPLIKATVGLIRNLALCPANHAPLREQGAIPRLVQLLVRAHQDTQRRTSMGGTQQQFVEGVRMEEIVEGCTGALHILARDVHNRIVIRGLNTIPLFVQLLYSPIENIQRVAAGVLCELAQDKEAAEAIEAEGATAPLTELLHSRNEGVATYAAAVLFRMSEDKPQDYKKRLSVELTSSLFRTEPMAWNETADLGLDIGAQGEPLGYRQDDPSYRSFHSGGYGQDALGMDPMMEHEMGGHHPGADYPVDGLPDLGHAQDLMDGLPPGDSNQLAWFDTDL

For some of these results: Results from cells or extracts need not show a direct contact. For some of these results: No signal at the amounts used counts as a negative. For some of these results: The exact form of at least one protein or probe is not confirmed. For some of these results: Where a protein sequence is shown, tags need not be part of it.

Series [1] concerns the target TCF-1 (S49.1 nuclear extract) (Mus musculus) (UniProt Q00417). As to the kind of experiment: EMSA. The conditions noted are these: poly(dI-dC), protein in an extract. On the technique in general: Mobility shift assays separate free from complexed probe on a gel.
Series [2] addresses TCF-1 C200 (HMG domain) (Mus musculus) (UniProt Q00417). As to the kind of experiment: competition with a labelled probe. The conditions noted are these: dose-dependent inhibition of TRE binding; purified recombinant protein; protein details: GST fusion, pGEX 4T-1; label: 32P-UTP; dose not given here.
For series [3], the target named is TCF-1 (S49.1 nuclear extract) (Mus musculus) (UniProt Q00417). In words: competition with a labelled probe. To be noted: protein in an extract.
The target of another series is GST-β-catenin Arm 1-12 (UniProt P35222). In words: pull-down. The conditions noted are these: β-catenin control; construct not given; purified recombinant protein; protein details: GST fusion, E. coli; label: 32P-UTP.
Series [4] deals with TCF-1 C200 (HMG domain) (Mus musculus) (UniProt Q00417). As to the kind of experiment: pull-down. To be noted: GST pull-down; purified recombinant protein; protein details: GST fusion, pGEX 4T-1; label: 32P-UTP.
The target in series [5] is T1, TCF-1 N100 (β-catenin binding domain) (Mus musculus) (UniProt Q00417).
T1 sequence (looked up): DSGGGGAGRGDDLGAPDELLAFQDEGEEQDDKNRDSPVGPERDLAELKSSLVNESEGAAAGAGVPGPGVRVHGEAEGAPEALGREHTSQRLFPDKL
As to the kind of experiment: pull-down. The conditions noted are these: purified recombinant protein; protein details: GST fusion, pGEX 4T-1; label: 32P-UTP.

For series [6], the system named is NFAT-1 DNA binding domain. As to the kind of experiment: pull-down. To be noted: purified recombinant protein; protein details: (His)6; label: 32P-UTP.
For series [7], the target named is β-catenin (endogenous, HCT116 or SW480 nuclear extract) (Homo sapiens) (UniProt P35222). In words: pull-down. To be noted: protein in an extract.
Series [8] deals with T2, γ-catenin (endogenous, HCT116 nuclear extract) (Homo sapiens) (UniProt P14923).
T2 sequence (looked up, limits assumed): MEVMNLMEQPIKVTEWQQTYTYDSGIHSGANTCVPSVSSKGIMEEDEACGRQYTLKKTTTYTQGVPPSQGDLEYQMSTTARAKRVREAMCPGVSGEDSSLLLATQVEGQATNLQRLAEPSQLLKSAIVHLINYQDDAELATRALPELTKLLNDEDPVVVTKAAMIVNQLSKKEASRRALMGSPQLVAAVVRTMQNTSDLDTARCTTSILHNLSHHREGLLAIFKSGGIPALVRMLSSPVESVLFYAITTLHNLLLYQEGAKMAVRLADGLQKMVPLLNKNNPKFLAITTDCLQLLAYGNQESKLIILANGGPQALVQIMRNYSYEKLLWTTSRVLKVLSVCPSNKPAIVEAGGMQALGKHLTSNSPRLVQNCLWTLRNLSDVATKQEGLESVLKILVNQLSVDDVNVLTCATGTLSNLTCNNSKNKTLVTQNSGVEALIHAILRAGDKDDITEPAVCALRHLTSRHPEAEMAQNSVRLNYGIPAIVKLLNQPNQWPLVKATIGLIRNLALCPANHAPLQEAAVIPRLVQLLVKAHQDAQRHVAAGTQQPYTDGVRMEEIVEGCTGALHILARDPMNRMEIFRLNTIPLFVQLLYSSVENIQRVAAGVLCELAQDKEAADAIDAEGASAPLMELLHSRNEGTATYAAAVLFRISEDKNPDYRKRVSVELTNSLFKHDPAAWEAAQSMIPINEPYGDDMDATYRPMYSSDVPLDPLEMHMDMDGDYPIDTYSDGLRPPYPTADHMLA
In words: pull-down. The conditions noted are these: no intramer associated with γ-catenin; protein in an extract; variant of β-catenin RNA aptamer.

The target in series [9] is GST-β-catenin, full length (UniProt P35222). As to the kind of experiment: inhibition of the protein. The conditions noted are these: disrupts recombinant β-catenin/TCF interaction in co-IP; purified recombinant protein; protein details: GST fusion, E. coli; label: 32P (radiolabelled); dose not given here.

“CGGUGCGAUCAAGCUGUUUACAUUGCAUGCUAGGACGACGCGCCCGAGCGGGUACCGAUUGUGUCGUCGG [RNA aptamer #10]”: the binding result in series [1] (room temperature, self-competition, label: 32P-UTP) is on record as “binds”; in the series with GST-β-catenin Arm 1-12 it was “no binding”; in series [4], “binds”; in [5], “no binding”; in [6] it was “no binding”. Further, the “functional effect of the aptamer” value in [2] is “active”; in series [3] (inhibits TRE binding to full-length TCF-1, label: 32P-UTP, dose not given here) it was “active”.
Turning to “GGACGCGUGGUACCAGGCCGAUCUAUGGACGCUAUAGGCACACCGGAUACUUUAACGAUUGGCUAAGCUUCCGCGGGGAUC [U6-RNA intramer (β-catenin aptamer under U6 promoter)]”, the binding result in series [7] (RNA co-immunoprecipitation with anti-β-catenin from HCT116, variant of β-catenin RNA aptamer) is listed as “binds”; in series [8], “no binding”.
For “GGACGCGUGGUACCAGGCCGAUCUAUGGACGCUAUAGGCACACCGGAUACUUUAACGAUUGGCUAAGCUUCCGCGGGGAUC [β-catenin RNA aptamer]”, the “functional effect of the aptamer” value in series [9] is listed as “active”. In series [7] (label: 32P (radiolabelled)), the binding result is “binds”.
On to “GGTAAGATCAAAGGG (double strand) [TRE (TCF responsive element)]”, for which, in series [1] (full-length TCF-1, S49.1 nuclear extract, label: 32P 5'-end), the binding result is reported as “binds”.
For “UGCUGACAAUUCUCGUGCCUCUCCAUGGUCUGCGGCUGAGAAGGUUCGCCAAGUUGUGGGCCGGGGUGC [RNA #9]”, the binding result in series [3] (did not compete with #10) is “no binding”.
